Data as given in patent US20100317600 (published 2010).

Test: general procedure: hybrid (solid and solution phase) peptide synthesis; polystyrene functionalized as aminomethyl or benzhydrylamino compound with 4-(4-hydroxymethyl-3-methoxyphenoxy)butyric a; TBTU, 1-hydroxybenzotriazole, diisopropylethylamine (fragment condensation)
Conditions: purification step, analytical HPLC; capillary electrophoresis; MS, TFA salt converted to acetate

| Substance | final HPLC purity |
| --- | --- |
| ANP(102-126) | more than 90% |
| ANP(99-126) | more than 90% |

One purity is given for all peptides; the source may state it once.
